Here are results for one molecule from patent US20040014187A1, “Bacterial carboxypeptidase cpg2 variants and their use in gene directed enzyme prodrug therapy” (priority 2000, published 2004).

These are yes or no findings as the source states them, for the method shown. Some results given as binding are weak or reduced against the parent protein; the word gives no strength.

The test has as its target CPG2*(N272) (Pseudomonas strain RS16) (UniProt P06621). Nature of the test: non-reducing SDS-PAGE of COS cell extracts (homodimer).

B1: CPG2*(N272) (enzyme)
chain: ALAQKRDNVLFQAATDEQPAVIKTLEKLVNIETGTGDAEGIAAAGNFLEAELKNLGFTVTRSKSAGLVVGDNIVGKIKGRGGKNLLLMSHMDTVYLKGILAKAPFRVEGDKAYGPGIADDKGGNAVILHTLKLLKEYGVRDYGTITVLFNTDEEKGSFGSRDLIQEEAKLADYVLSFEPTSAGDEKLSLGTSGIAYVQVNITGKASHAGAAPELGVNALVEASDLVLRTMNIDDKAKNLRFNWTIAKAGLVSNIIPASATLNADVRYARNEDFDAAMKTLEERAQQKKLPEADVKVIVTRGRPAFNAGEGGKKLVDKAVAYYKEAGGTLGVEERTGGGTDAAYAALSGKPVIESLGLPGFGYHSDKAEYVDISAIPRRLYMAARLIMDLGAGK
Regarding B1, the binding entry is recorded as “binds”.
